Tests used:
Parameters in all cases: species or system CFLP mice
[1] = Traction test (muscle incoordination and ataxia); conditions: mouse, in vivo, po, 1 hour before test; read-out: Traction test ED50
Experimental: b. Traction test: The test was carried out according to the method of Theobald et al. (Arch. int. Pharmacodyn. 148, 560 (1964)). The two anterior limbs of the test animals were placed onto a horizontal rod so as to let the animals clutch the rod. The control animals pulled their hind limbs onto the rod within 5 seconds. The ED50 values were calculated from the percentage of the animals showing negative response.

[2] = Rotarod test (muscle incoordination and ataxia); conditions: mouse, in vivo, po, 1 hour before test; 12/min., 120 sec.; read-out: Rotarod test ED50
Experimental: a. Rotarod test: The test was carried out according to the method of Kinnard and Carr (Brit. J. Pharmacol. Exp. Ther. 121, 354 (1957)). The control animals were able to stay for 120 sec. on a rod rotated with a frequency of 12/min. The ED50 values were calculated from the percentage of the animals falling down within 120 sec.

[3] = Acute toxicity; conditions: mouse, in vivo, po; death rate observed for one week

Work on `CN1C(=O)CN=C(c2ccccc2)c2cc(Cl)ccc21` [Diazepam] yielded a TD50 at 1 h [1] of 4.4 mg/kg, a TD50 at 1 h [2] of 3.1 mg/kg and an LD50 at 168 h [3] of 815 mg/kg.

Source: patent US4045433A, “1,3,4,5-Tetrahydro-2H-1,4-benzodiazepin-2-ones” (priority 1974, dated 1977)
